Assay results: PMC10517925
No constants are given. Whether binding was seen depends on the method and setting. Binding seen in cells or lysates may run through a third protein. Some binding calls cover weakened binding; strength is not graded here. Values belong to the binder of their own block, whether it stands above or below them.

By UniProt entry, the sequences of proteins in these tests, tags left out.
UniProt Q9QZL0: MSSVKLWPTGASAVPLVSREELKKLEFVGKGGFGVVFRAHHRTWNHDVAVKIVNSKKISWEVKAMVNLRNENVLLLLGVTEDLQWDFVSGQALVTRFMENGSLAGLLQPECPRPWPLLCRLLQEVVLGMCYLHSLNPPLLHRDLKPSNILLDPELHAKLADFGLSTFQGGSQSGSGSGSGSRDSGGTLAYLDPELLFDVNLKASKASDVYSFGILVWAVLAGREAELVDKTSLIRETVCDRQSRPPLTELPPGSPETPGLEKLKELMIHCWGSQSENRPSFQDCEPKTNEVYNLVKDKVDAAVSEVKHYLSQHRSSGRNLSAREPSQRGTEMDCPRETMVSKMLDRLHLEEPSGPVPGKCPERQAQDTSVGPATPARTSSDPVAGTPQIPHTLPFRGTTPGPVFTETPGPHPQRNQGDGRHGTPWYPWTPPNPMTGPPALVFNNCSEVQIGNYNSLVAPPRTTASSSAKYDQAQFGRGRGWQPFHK

Columns and labels:
[1] = molecular target: Mouse RIPK3-flag (mouse), Q9QZL0; experiment: co-IP; anti-flag M2 beads overnight with the soluble fraction of lysates (20 mM Tris-HCl pH 7.5, 120 mM NaCl, 1% Triton X-100) of mouse RIPK3-flag reconstituted RIPK3-KO L929 cells treated with TSZ for indicated times; cells pretreated 1 h with vehicle, Ibrutinib (15 uM) or Quizartinib (2 uM); immunoblot; settings: remark: other sources report otherwise
Mouse RIPK3-flag (mouse) = Mouse RIPK3-flag (mouse) (UniProt Q9QZL0); experiment: as above

- binding [1]: binds
B1: receptor-interacting serine/threonine kinase 1 (RIPK1), mouse, Q60855 1-656 (protein)
chain: MQPDMSLDNIKMASSDLLEKTDLDSGGFGKVSLCYHRSHGFVILKKVYTGPNRAEYNEVLLEEGKMMHRLRHSRVVKLLGIIIEEGNYSLVMEYMEKGNLMHVLKTQIDVPLSLKGRIIVEAIEGMCYLHDKGVIHKDLKPENILVDRDFHIKIADLGVASFKTWSKLTKEKDNKQKEVSSTTKKNNGGTLYYMAPEHLNDINAKPTEKSDVYSFGIVLWAIFAKKEPYENVICTEQFVICIKSGNRPNVEEILEYCPREIISLMERCWQAIPEDRPTFLGIEEEFRPFYLSHFEEYVEEDVASLKKEYPDQSPVLQRMFSLQHDCVPLPPSRSNSEQPGSLHSSQGLQMGPVEESWFSSSPEYPQDENDRSVQAKLQEEASYHAFGIFAEKQTKPQPRQNEAYNREEERKRRVSHDPFAQQRARENIKSAGARGHSDPSTTSRGIAVQQLSWPATQTVWNNGLYNQHGFGTTGTGVWYPPNLSQMYSTYKTPVPETNIPGSTPTMPYFSGPVADDLIKYTIFNSSGIQIGNHNYMDVGLNSQPPNNTCKEESTSRHQAIFDNTTSLTDEHLNPIRENLGRQWKNCARKLGFTESQIDEIDHDYERDGLKEKVYQMLQKWLMREGTKGATVGKLAQALHQCCRIDLLNHLIRASQS

- binding (Mouse RIPK3-flag (mouse)): binds
B2: mixed lineage kinase domain-like protein (MLKL), mouse (protein, UniProt Q9D2Y4 1-472)
chain: MDKLGQIIKLGQLIYEQCEKMKYCRKQCQRLGNRVHGLLQPLQRLQAQGKKNLPDDITAALGRFDEVLKEANQQIEKFSKKSHIWKFVSVGNDKILFHEVNEKLRDVWEELLLLLQVYHWNTVSDVSQPASWQQEDRQDAEEDGNENMKVILMQLQISVEEINKTLKQCSLKPTQEIPQDLQIKEIPKEHLGPPWTKLKTSKMSTIYRGEYHRSPVTIKVFNNPQAESVGIVRFTFNDEIKTMKKFDSPNILRIFGICIDQTVKPPEFSIVMEYCELGTLRELLDREKDLTMSVRSLLVLRAARGLYRLHHSETLHRNISSSSFLVAGGYQVKLAGFELSKTQNSISRTAKSTKAERSSSTIYVSPERLKNPFCLYDIKAEIYSFGIVLWEIATGKIPFEGCDSKKIRELVAEDKKQEPVGQDCPELLREIINECRAHEPSQRPSVDGRSLSGRERILERLSAVEESTDKKV
